The text below walks through data of article PMC4669791.

Protein sequences, listed by entry. Tags and fused reporters are not part of them. Lines headed by an entry give the natural chain unless they say otherwise; changes in a name come on top. Residues count along the entry.
UniProt P38646, residues 47-679: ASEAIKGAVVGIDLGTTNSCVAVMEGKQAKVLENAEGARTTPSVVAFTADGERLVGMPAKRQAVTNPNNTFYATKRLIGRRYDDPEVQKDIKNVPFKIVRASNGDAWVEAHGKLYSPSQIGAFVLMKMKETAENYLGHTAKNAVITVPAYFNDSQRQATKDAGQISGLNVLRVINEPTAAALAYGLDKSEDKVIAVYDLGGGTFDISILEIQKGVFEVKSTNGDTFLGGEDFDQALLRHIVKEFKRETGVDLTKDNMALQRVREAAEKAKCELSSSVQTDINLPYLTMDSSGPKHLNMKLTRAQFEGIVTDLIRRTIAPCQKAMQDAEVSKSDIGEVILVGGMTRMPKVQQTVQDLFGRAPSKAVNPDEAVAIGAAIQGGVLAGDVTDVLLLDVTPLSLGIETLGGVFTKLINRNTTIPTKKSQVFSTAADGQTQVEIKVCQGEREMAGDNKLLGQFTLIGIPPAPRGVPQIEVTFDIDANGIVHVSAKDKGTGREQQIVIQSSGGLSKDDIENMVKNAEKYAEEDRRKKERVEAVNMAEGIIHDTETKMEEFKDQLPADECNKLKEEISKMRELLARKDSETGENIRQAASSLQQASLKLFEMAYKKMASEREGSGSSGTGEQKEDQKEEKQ
UniProt P10809, residues 27-573: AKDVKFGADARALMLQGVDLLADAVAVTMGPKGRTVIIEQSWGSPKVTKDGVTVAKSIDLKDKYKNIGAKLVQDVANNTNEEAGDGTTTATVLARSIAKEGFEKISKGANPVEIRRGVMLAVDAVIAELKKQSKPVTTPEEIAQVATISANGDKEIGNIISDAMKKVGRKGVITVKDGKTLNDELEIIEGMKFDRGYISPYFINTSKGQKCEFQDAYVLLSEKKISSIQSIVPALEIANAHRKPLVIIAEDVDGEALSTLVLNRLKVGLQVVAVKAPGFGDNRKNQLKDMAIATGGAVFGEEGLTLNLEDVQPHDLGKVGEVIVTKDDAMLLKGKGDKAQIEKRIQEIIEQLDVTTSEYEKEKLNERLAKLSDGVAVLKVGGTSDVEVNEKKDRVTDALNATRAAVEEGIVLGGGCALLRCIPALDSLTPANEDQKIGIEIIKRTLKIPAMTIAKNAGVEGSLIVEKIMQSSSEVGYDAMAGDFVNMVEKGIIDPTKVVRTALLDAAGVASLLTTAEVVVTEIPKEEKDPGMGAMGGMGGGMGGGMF
UniProt O00217, residues 35-210: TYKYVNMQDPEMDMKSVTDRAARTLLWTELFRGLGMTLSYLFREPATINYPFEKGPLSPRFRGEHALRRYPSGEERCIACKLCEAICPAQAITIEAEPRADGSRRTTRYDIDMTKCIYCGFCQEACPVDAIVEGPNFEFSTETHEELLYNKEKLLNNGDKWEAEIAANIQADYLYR

Assay [1] concerns the target mtHsp70 (endogenous, FADU cells) (human (endogenous in FADU)) (UniProt P38646). In words: co-IP; FADU cells infected with vector or shRNAs for Hsp60, mtHsp70 or Lon; IP of endogenous proteins with anti-Lon, anti-mtHsp70 or anti-Hsp60, western blot. On the technique in general: A western blot detects proteins with antibodies after separation by electrophoresis.
Assay [2] has as its target T1, Lon (Co-IP with NDUFS8, Supplementary Figure S4A) (human) (UniProt P36776).
T1 sequence: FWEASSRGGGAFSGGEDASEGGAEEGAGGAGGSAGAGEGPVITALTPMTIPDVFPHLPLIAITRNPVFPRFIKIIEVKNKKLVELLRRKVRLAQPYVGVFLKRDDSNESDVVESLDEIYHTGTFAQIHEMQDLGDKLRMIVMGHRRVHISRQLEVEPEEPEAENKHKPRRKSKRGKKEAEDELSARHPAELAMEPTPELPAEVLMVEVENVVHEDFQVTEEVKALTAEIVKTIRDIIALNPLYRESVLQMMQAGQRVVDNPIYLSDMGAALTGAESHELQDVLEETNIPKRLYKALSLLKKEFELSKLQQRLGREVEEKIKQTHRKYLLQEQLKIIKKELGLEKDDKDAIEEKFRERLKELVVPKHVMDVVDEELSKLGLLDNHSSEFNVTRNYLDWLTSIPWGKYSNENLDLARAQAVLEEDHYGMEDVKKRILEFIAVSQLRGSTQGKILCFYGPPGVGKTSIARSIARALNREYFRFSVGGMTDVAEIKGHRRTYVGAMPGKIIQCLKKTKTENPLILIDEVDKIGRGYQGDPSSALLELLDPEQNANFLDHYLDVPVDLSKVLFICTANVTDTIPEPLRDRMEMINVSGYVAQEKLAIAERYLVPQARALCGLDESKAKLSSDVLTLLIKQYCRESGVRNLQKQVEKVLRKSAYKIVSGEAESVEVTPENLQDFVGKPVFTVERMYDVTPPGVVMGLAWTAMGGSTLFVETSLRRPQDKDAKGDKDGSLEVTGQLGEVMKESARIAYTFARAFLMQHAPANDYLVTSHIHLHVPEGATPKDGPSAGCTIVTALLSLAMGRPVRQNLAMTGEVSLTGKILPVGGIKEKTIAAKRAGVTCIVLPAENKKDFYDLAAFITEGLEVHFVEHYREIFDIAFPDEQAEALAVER
Briefly: co-IP; Co-IP of Lon and NDUFS8 (Supplementary Figure S4A); cells not told in what was shown.

For assay [3], the target named is T2, Human Lon protease with Myc tag (human) (UniProt P36776).
T2 sequence: T1 sequence
Briefly: co-IP; 293/Lon cells; IP with anti-mtHsp70 or anti-Lon, western blot.

Assay [4] has as its target T3, endogenous Lon (FADU cells) (human (endogenous in FADU)) (UniProt P36776).
T3 sequence: T1 sequence
In words: co-IP; FADU cells infected with vector or shRNAs for Hsp60, mtHsp70 or Lon; IP of endogenous proteins with anti-Lon, anti-mtHsp70 or anti-Hsp60, western blot.

Results are given in words; binding and its absence hold for the method and conditions named. In cells and extracts the contact can be indirect. Some results given as binding are weak or reduced against the parent protein; the word gives no strength. For some of these results: Where a sequence is shown, tags or fusion partners need not be part of it.

With “Hsp60 (endogenous, FADU cells) (from UniProt P10809 27-573)”, in assay [1], the binding result is “binds”. Regarding “NDUFS8 (Co-IP with Lon, Supplementary Figure S4A) (from UniProt O00217 35-210)”, the binding entry in assay [2] is on record as “binds”. Consider “Stress-70 protein, mitochondrial (mtHSP70) (from UniProt P38646 47-679)”, for which the binding entry in assay [3] is “binds”.

For the substance “mtHsp70 (endogenous, FADU cells) (from UniProt P38646 47-679)”, the binding result in assay [4] is given as “binds”.
